Reference: the supplement of paper PMC6411743
± gives the standard deviation of the averaged measurements. The entries are a selection whose mix differs from that of the whole data set.

The chains behind the UniProt entries cited, without tags or fusion partners. Where a name states a change or a piece, a line headed by the entry shows the natural chain unless it says otherwise.
UniProt Q96AA3: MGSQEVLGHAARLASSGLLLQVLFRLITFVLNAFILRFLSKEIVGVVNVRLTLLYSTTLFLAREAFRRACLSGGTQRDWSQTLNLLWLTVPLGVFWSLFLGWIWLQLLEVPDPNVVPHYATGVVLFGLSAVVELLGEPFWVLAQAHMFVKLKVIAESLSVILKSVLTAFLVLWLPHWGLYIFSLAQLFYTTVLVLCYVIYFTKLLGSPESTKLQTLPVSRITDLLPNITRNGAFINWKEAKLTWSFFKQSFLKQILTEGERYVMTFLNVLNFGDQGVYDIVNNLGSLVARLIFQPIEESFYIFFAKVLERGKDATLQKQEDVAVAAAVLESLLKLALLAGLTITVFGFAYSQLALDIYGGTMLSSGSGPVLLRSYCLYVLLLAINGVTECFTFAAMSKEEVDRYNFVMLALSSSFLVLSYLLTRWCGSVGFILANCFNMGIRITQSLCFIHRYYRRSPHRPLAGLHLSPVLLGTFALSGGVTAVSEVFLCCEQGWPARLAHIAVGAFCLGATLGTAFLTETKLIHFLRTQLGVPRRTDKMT
UniProt P20839, whole entry, looked up: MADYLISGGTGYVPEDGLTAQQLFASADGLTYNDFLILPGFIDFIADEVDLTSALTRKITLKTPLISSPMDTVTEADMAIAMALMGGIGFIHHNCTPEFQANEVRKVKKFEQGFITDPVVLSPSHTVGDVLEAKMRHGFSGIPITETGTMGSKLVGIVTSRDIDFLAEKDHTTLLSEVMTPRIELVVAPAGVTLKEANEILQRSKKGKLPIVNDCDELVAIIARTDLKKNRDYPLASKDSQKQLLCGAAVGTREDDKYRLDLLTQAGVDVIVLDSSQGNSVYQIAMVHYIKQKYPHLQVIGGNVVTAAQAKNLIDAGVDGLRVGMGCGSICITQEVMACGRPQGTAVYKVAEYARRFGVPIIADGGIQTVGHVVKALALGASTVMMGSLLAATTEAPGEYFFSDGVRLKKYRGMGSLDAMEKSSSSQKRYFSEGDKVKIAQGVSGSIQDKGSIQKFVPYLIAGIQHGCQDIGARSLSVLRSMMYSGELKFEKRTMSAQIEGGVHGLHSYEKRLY
UniProt P68366, whole entry: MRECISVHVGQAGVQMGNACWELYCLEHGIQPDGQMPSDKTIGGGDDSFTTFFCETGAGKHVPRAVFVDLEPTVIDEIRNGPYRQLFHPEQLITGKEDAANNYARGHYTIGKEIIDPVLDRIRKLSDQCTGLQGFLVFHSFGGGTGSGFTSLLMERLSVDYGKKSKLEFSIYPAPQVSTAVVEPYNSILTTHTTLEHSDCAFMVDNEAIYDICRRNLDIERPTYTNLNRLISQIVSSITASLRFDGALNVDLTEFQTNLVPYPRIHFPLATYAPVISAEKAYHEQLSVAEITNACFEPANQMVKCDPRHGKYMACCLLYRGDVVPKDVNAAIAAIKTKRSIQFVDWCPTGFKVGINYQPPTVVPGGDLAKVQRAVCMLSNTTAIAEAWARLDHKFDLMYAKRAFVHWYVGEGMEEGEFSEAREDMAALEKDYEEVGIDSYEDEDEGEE
UniProt Q86WB0: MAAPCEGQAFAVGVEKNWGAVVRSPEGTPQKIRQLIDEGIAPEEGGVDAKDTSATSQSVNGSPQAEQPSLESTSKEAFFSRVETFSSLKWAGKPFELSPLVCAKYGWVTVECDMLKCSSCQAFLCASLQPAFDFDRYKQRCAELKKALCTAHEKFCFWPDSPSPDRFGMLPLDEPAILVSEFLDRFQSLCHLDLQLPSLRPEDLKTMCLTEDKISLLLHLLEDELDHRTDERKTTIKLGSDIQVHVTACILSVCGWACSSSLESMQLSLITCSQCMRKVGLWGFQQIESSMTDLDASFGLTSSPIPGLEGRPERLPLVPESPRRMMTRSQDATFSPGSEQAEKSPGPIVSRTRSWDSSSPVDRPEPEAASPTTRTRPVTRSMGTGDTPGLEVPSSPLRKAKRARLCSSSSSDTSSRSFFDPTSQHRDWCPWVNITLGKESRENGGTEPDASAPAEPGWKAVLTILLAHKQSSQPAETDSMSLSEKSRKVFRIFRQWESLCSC
UniProt O60573: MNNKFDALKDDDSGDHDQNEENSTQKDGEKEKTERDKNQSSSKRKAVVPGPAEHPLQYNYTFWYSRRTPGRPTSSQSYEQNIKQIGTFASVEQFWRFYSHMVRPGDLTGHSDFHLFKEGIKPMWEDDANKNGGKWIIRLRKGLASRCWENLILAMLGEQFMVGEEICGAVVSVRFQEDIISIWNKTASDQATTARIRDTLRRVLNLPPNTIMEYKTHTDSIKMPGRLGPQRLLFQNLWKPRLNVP
UniProt P61619, whole entry: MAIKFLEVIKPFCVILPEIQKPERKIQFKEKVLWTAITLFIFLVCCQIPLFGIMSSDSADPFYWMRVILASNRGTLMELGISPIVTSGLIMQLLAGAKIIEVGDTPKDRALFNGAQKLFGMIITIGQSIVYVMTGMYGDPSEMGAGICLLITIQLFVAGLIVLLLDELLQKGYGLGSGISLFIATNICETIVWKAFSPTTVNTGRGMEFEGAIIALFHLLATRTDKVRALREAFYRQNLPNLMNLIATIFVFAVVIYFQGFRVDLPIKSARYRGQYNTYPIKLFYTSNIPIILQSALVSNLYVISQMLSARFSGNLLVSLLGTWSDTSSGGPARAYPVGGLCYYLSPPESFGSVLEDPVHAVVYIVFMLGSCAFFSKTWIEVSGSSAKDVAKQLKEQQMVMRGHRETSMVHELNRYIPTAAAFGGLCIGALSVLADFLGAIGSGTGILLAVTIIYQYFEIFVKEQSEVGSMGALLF
UniProt Q8NEZ3: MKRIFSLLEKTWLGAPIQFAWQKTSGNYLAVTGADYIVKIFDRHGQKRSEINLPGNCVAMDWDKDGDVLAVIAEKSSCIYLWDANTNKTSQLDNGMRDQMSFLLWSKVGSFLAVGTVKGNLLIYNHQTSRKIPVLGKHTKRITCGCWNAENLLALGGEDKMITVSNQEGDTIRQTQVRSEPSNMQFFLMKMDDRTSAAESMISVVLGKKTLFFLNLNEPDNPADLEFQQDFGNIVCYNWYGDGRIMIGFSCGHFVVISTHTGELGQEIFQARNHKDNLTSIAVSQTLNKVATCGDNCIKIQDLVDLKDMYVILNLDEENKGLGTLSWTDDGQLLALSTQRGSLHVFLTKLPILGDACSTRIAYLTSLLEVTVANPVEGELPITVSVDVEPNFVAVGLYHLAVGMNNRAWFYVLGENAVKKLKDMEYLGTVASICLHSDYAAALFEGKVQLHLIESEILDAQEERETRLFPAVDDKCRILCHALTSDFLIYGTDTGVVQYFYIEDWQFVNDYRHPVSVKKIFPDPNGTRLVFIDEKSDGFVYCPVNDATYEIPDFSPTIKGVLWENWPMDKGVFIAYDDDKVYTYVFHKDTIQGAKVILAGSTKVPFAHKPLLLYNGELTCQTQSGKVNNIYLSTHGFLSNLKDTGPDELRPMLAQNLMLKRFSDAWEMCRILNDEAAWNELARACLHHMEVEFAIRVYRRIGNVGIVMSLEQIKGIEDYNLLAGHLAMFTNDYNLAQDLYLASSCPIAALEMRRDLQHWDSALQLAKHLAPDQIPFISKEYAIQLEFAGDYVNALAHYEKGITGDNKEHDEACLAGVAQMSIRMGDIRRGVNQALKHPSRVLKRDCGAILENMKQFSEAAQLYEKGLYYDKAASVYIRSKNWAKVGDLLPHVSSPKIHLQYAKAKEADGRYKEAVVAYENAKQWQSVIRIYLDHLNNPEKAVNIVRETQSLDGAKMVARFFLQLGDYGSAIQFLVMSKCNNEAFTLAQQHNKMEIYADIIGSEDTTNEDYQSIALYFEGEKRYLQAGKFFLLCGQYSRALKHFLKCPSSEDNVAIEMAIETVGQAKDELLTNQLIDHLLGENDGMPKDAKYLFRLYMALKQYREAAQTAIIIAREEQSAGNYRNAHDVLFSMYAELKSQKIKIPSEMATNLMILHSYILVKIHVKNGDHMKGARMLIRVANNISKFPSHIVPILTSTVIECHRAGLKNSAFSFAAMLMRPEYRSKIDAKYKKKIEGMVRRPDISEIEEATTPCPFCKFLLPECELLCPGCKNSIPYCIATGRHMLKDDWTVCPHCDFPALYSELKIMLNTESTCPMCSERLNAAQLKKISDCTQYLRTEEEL
UniProt P63165, whole entry: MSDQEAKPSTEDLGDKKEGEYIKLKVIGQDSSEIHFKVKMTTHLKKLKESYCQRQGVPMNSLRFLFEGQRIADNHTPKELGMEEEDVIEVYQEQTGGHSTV
UniProt O15304: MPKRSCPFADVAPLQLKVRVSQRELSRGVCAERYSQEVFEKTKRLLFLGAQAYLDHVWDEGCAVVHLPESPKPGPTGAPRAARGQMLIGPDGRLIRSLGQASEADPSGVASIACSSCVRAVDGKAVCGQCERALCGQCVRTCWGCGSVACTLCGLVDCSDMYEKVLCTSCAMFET
UniProt Q02083: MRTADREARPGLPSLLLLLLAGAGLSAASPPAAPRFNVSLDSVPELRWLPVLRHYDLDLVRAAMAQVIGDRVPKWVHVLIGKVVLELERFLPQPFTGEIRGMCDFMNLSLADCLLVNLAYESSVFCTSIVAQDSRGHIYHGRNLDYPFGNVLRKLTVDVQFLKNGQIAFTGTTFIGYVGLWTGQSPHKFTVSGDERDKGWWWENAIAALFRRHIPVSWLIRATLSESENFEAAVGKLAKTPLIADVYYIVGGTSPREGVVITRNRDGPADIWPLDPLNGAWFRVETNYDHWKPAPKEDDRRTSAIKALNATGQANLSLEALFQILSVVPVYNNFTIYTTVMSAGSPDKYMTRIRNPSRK
UniProt Q9BVT8: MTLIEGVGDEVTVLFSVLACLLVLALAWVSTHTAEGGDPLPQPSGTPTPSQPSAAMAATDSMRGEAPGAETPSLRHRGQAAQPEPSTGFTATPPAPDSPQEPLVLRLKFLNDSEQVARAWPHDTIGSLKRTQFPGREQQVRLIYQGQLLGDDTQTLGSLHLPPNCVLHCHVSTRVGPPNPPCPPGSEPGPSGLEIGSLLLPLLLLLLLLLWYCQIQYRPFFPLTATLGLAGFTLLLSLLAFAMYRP
UniProt P55212: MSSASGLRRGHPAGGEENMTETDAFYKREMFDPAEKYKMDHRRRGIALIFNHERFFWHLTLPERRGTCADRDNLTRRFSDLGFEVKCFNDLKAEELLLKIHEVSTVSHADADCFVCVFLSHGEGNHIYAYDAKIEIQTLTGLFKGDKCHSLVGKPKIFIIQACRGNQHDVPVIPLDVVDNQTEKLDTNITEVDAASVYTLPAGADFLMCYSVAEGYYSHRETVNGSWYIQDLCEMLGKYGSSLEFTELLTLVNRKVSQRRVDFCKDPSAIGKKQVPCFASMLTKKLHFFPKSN
UniProt Q15019: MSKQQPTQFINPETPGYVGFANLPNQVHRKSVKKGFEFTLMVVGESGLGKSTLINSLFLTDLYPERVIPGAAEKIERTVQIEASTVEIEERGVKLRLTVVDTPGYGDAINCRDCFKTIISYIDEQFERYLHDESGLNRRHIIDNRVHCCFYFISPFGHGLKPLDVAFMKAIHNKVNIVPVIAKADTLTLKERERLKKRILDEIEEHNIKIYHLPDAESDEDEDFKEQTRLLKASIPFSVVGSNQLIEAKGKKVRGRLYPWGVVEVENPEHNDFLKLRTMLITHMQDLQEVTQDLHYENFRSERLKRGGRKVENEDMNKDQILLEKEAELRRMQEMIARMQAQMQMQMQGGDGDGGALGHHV
UniProt P84101: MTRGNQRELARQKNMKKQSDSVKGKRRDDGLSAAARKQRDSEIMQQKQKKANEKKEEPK
UniProt A2RU67: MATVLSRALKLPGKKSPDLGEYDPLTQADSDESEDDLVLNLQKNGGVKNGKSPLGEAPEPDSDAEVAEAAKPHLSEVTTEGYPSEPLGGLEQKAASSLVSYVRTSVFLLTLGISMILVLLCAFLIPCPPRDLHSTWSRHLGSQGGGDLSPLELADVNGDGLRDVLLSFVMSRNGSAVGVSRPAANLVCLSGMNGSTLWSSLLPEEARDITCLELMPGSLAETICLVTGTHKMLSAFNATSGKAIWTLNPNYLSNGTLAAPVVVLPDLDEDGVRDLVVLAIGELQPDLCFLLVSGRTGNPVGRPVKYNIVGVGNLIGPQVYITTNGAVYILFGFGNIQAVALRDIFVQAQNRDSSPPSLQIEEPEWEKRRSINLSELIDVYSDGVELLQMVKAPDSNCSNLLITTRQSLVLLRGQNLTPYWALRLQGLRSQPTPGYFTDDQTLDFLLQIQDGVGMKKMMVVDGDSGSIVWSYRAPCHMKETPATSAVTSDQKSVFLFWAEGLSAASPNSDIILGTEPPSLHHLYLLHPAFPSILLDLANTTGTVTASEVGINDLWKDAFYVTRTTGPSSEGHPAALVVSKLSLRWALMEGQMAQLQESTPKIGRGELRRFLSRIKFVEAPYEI
UniProt P19256, whole entry: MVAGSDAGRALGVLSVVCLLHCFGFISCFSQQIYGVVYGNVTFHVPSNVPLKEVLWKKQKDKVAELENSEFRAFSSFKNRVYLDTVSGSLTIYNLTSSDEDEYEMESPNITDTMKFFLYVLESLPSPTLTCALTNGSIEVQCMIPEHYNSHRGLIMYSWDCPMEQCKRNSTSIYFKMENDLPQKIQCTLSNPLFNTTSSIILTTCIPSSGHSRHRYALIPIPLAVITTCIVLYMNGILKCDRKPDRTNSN

Compound: Nc1ncnc2c1ncn2[C@@H]1O[C@H](COP(=O)(O)OP(=O)(O)NP(=O)(O)O)[C@@H](O)[C@H]1O [adenylyl imidodiphosphate]
Assay: NP40-soluble protein abundance relative to vehicle (solubility fold change) (ratio); higher = more soluble protein in presence of AMP-PNP
Summary of the method: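 Eight concentrations, 0.1 to 10 mM, were tested on Jurkat crude lysate for 10 min at room temperature and then 3 min at 37 °C, in three independent experiments. The lysate was solubilised with 0.8% NP40 and benzonase, ultracentrifuged, and the supernatant TMT-labelled for LC-MS/MS. Each value is the fold change against the detergent-processed vehicle in its own replicate, from vsn-normalised intensities.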

Target | NP40-soluble protein abundance (concentration: 1mM) | NP40-soluble protein abundance (concentration: 2mM) | NP40-soluble protein abundance (concentration: 4mM) | NP40-soluble protein abundance (concentration: 6mM) | NP40-soluble protein abundance (concentration: 8mM) | NP40-soluble protein abundance (concentration: 10mM)
B5MDE0 and related entries (UniProt Q96AA3) | 0.987 ± 0.012 | 0.928 ± 0.036 | 0.956 ± 0.025 | 0.958 ± 0.043 | 0.979 ± 0.048 | 0.944 ± 0.025
C9JNW5 and related entries (UniProt P83731) | 0.955 ± 0.053 | 0.987 ± 0.041 | 0.903 ± 0.064 | 0.92 ± 0.084 | 0.813 ± 0.057 | 0.976 ± 0.12
C9J381 and related entries (UniProt P20839) | 0.918 ± 0.04 | 0.859 ± 0.063 | 0.846 ± 0.11 | 0.856 ± 0.063 | 0.874 ± 0.049 | 0.891 ± 0.1
C9JJQ8 and related entries (UniProt P68366) | 0.9628 ± 0.0011 | 1.04 ± 0.036 | 0.965 ± 0.023 | 0.955 ± 0.035 | 0.946 ± 0.037 | 0.9706 ± 0.0034
UniProt A6QL63 and related entries | 0.988 ± 0.04 | 0.97 ± 0.079 | 0.964 ± 0.049 | 0.953 ± 0.065 | 0.968 ± 0.048 | 0.946 ± 0.059
B1AKC9 and related entries (UniProt P29323) | 0.989 ± 0.028 | 0.984 ± 0.038 | 0.966 ± 0.042 | 0.976 ± 0.053 | 0.996 ± 0.034 | 1 ± 0.031
C9J0I9 and related entries (UniProt Q86WB0) | 1.01 ± 0.011 | 1.02 ± 0.043 | 1.01 ± 0.035 | 1.02 ± 0.024 | 1.01 ± 0.071 | 1.01 ± 0.049
B4E0T2 and related entries (UniProt P50542) | 1.01 ± 0.032 | 1.03 ± 0.021 | 0.985 ± 0.03 | 0.946 ± 0.029 | 0.943 ± 0.035 | 0.943 ± 0.029
E5RHW4 and related entries (UniProt O94905) | 0.989 ± 0.11 | 0.998 ± 0.077 | 0.944 ± 0.12 | 0.96 ± 0.15 | 0.917 ± 0.11 | 0.941 ± 0.18
B4E1E4 and related entries (UniProt O60573) | 1 ± 0.056 | 1 ± 0.091 | 1.02 ± 0.088 | 1.03 ± 0.024 | 1.05 ± 0.029 | 1.04 ± 0.062
B4DR61 and related entries (UniProt P61619) | 0.941 ± 0.075 | 0.868 ± 0.047 | 0.97 ± 0.048 | 0.99 ± 0.079 | 1.04 ± 0.056 | 0.947 ± 0.058
D6RE75 and related entries (UniProt Q8NEZ3) | 0.993 ± 0.032 | 1.046 ± 0.0099 | 0.9868 ± 0.0082 | 0.967 ± 0.056 | 0.973 ± 0.064 | 0.973 ± 0.038
B8ZZN6 and related entries (UniProt P63165) | 0.969 ± 0.055 | 1.04 ± 0.04 | 0.937 ± 0.055 | 0.968 ± 0.058 | 0.909 ± 0.047 | 0.93 ± 0.045
D3YTB1 and related entries (UniProt P62910) | 1.01 ± 0.047 | 1.02 ± 0.062 | 0.995 ± 0.092 | 0.978 ± 0.059 | 0.835 ± 0.11 | 0.993 ± 0.093
C9J3D7 and related entries (UniProt Q9UKG9) | 0.964 ± 0.042 | 0.9 ± 0.076 | 0.976 ± 0.029 | 0.9294 ± 0.0064 | 0.931 ± 0.022 | 0.93 ± 0.01
B4DTY2 and related entries (UniProt O15304) | 0.985 ± 0.0082 | 0.999 ± 0.049 | 0.968 ± 0.039 | 0.958 ± 0.04 | 0.967 ± 0.045 | 0.972 ± 0.059
B4DVL2 and related entries (UniProt Q02083) | 0.993 ± 0.019 | 0.997 ± 0.013 | 1 ± 0.021 | 1.02 ± 0.011 | 1 ± 0.033 | 0.9934 ± 0.0063
C9JCW7 and related entries (UniProt Q9BVT8) | 1 ± 0.027 | 1.01 ± 0.049 | 0.979 ± 0.032 | 1 ± 0.022 | 0.975 ± 0.05 | 0.967 ± 0.033
C9JJ19 and related entries (UniProt P82930) | 1.04 ± 0.015 | 1 ± 0.026 | 0.991 ± 0.067 | 0.974 ± 0.075 | 0.972 ± 0.055 | 0.979 ± 0.11
D6RHU3 and related entries (UniProt P55212) | 0.968 ± 0.039 | 0.865 ± 0.11 | 0.936 ± 0.032 | 0.914 ± 0.047 | 0.949 ± 0.016 | 0.885 ± 0.043
B5MCX3 and related entries (UniProt Q15019) | 1.027 ± 0.0023 | 0.997 ± 0.032 | 1.003 ± 0.0091 | 0.984 ± 0.026 | 0.98 ± 0.017 | 0.952 ± 0.037
B4DR80 and related entries (UniProt Q9Y6E0) | 0.999 ± 0.02 | 1.04 ± 0.098 | 0.997 ± 0.012 | 1 ± 0.027 | 0.988 ± 0.016 | 1.01 ± 0.02
A8MT40 and related entries (UniProt Q8NCN5) | 0.956 ± 0.026 | 0.861 ± 0.11 | 0.95 ± 0.038 | 0.885 ± 0.033 | 0.924 ± 0.039 | 0.878 ± 0.021
B8ZZY7 and related entries (UniProt P84101) | 1.02 ± 0.053 | 1.05 ± 0.041 | 0.973 ± 0.035 | 0.929 ± 0.061 | 0.843 ± 0.046 | 0.954 ± 0.051
A6NG10 and related entries (UniProt Q969T9) | 0.988 ± 0.061 | 1.01 ± 0.039 | 1.04 ± 0.064 | 1.05 ± 0.077 | 1.06 ± 0.068 | 1.08 ± 0.092
B3KQH5 and related entries (UniProt Q9UL03) | 1 ± 0.035 | 0.997 ± 0.043 | 1.03 ± 0.041 | 1.05 ± 0.072 | 1.05 ± 0.057 | 1.06 ± 0.068
UniProt A2RU67 | 0.9918 ± 0.004 | 1.03 ± 0.031 | 1.02 ± 0.021 | 1 ± 0.019 | 1 ± 0.017 | 1.03 ± 0.016
B1AMW1 and related entries (UniProt P19256) | 0.974 ± 0.023 | 1.04 ± 0.023 | 0.9948 ± 0.0026 | 1.03 ± 0.059 | 1.005 ± 0.0083 | 1.01 ± 0.044
C9IY40 and related entries (UniProt Q5T653) | 0.972 ± 0.051 | 0.951 ± 0.034 | 0.966 ± 0.037 | 0.955 ± 0.038 | 0.962 ± 0.057 | 0.966 ± 0.059
B4DV51 and related entries (UniProt P62826) | 0.98 ± 0.046 | 0.956 ± 0.011 | 0.977 ± 0.076 | 1.1 ± 0.13 | 1.1 ± 0.065 | 1.12 ± 0.051

Taken from above.
Entry of C9IY40 and related entries (UniProt Q5T653) under NP40-soluble protein abundance (concentration: 1mM): 0.972 ± 0.051
Entry of D6RE75 and related entries (UniProt Q8NEZ3) under NP40-soluble protein abundance (concentration: 6mM): 0.967 ± 0.056
